According to publication PMC12008848:

Biological target: Flag-TRIM27-ΔR (TRIM27 lacking the RING domain)
Assay: co-IP; 293T cells transfected with Myc-TAB2 and Flag-TRIM27 or Flag-TRIM27-ΔR; lysates immunoprecipitated with anti-Flag, blotted with anti-Flag or anti-Myc; extraction buffer 50 mM Tris-HCl pH 8.0, 150 mM NaCl, 1 mM EDTA, 0.5% Nonidet P40

- binding: binds
B1: Myc-TAB2 (TAK1 binding protein 2) (protein, UniProt Q9NYJ8 1-693)
chain: MAQGSHQIDFQVLHDLRQKFPEVPEVVVSRCMLQNNNNLDACCAVLSQESTRYLYGEGDLNFSDDSGISGLRNHMTSLNLDLQSQNIYHHGREGSRMNGSRTLTHSISDGQLQGGQSNSELFQQEPQTAPAQVPQGFNVFGMSSSSGASNSAPHLGFHLGSKGTSSLSQQTPRFNPIMVTLAPNIQTGRNTPTSLHIHGVPPPVLNSPQGNSIYIRPYITTPGGTTRQTQQHSGWVSQFNPMNPQQVYQPSQPGPWTTCPASNPLSHTSSQQPNQQGHQTSHVYMPISSPTTSQPPTIHSSGSSQSSAHSQYNIQNISTGPRKNQIEIKLEPPQRNNSSKLRSSGPRTSSTSSSVNSQTLNRNQPTVYIAASPPNTDELMSRSQPKVYISANAATGDEQVMRNQPTLFISTNSGASAASRNMSGQVSMGPAFIHHHPPKSRAIGNNSATSPRVVVTQPNTKYTFKITVSPNKPPAVSPGVVSPTFELTNLLNHPDHYVETENIQHLTDPTLAHVDRISETRKLSMGSDDAAYTQALLVHQKARMERLQRELEIQKKKLDKLKSEVNEMENNLTRRRLKRSNSISQIPSLEEMQQLRSCNRQLQIDIDCLTKEIDLFQARGPHFNPSAIHNFYDNIGFVGPVPPKPKDQRSIIKTPKTQDTEDDEGAQWNCTACTFLNHPALIRCEQCEMPRHF

No constants are given. Whether binding was seen depends on the method and setting. Binding seen in cells or lysates may run through a third protein. Binding calls can cover weak binding; strength is not graded here. Where a sequence is shown, tags or fusion partners need not be part of it.
